# In patent EP0064820A1, “Substituted imidazole and imidazoline derivatives and their preparation and use” (Farmos-Yhtyma Oy, priority 1981, dated 1982):
# For at least one compound, name, drawing or mass did not settle the structure.
# Test system: thrombocytes from a cow
# Assay: antithrombotic activity in vitro: inhibition of ADP- and collagen-induced aggregation of thrombocytes, turbidimetric
# Format: cell-based
# Settings: cow plasma; for inhibition of ADP-induced aggregation of thrombocytes: ADP added after 10 min incubation; for inhibition of collagen-induced aggregation of thrombocytes: collagen added after 10 min incubation
# Protocol: The antithrombotic activity was investigated in vitro. The inhibiting activity of the compounds against ADP- and collagen-induced aggregation of thrombocytes was measured. In the test thrombocytes from a cow were used. To 1.2 ml of plasma containing 250000 thrombocytes/mm^3 were added 50 µl of a solution of the compound to be tested. After 10 min incubation either ADP or collagen was added. The aggregation of the thrombocytes was turbidimetrically determined at X = 605 nm.
Structure (SMILES),inhibition of ADP-induced aggregation of thrombocytes,inhibition of collagen-induced aggregation of thrombocytes
"Cc1cccc(CCC2=NCCN2)c1C [2-[2-(2,3-dimethylphenyl)-ethyl]-imidazoline]",effectively,effectively
"Cc1cccc(C)c1CCC1=NCCN1 [2-[2-(2,6-dimethylphenyl)-ethyl]-imidazoline]",effectively,effectively
